According to article PMC1399460, “Synthesis and glycosidase inhibitory activity of new hexa-substituted C8-glycomimetics” (Beilstein Journal of Organic Chemistry, 2005):

Key:
[1] = system: T1, amyloglucosidase from Rhizopus mold; assay: glycosidase inhibition assay; format: biochemical, Rhizopus sp.; conditions: 1 mM inhibitor, optimal pH
T1 construct: commercial native enzyme preparation

[2] = system: T2, β-D-glucosidase from almonds; assay: glycosidase inhibition assay; format: biochemical, Prunus dulcis; conditions: 1 mM inhibitor, optimal pH
T2 construct: gene emulsin

SMILES | % inhibition at 1 mM [1] | % inhibition at 1 mM [2]
O[C@H]1[C@H](O)[C@H](O)C[C@H](O)[C@H](O)C[C@H]1O [compound 6, C8 hexa-substituted carbasugar 6] | 21% | 
OCC(CO)N[C@@H]1C[C@@H](O)[C@@H](O)[C@H](O)[C@H](O)C[C@H]1O [compound 20, aminocyclitol 20] | 27% | 19%
O[C@H]1[C@H](O)[C@@H](O)C[C@H](O)[C@H](O)C[C@@H]1O [compound 5, C8 hexa-substituted carbasugar 5] | 20% | 
OCC(CO)N[C@H]1C[C@H](O)[C@@H](O)[C@H](O)[C@@H](O)C[C@@H]1O [compound 19, C8-voglibose mimetic 19] | 28% | 
N[C@@H]1C[C@@H](O)[C@@H](O)[C@H](O)[C@H](O)C[C@H]1O [compound 16, aminocyclitol 16] | 20% | 11%
N[C@H]1C[C@H](O)[C@@H](O)[C@H](O)[C@@H](O)C[C@@H]1O [compound 15, aminocyclitol 15] | 23% | 7%
